Drawing on article PMC5910400, this text covers binding for two substances.

By UniProt entry, the sequences of proteins in these tests, tags left out. Where a name states a change or a piece, a line headed by the entry shows the natural chain unless it says otherwise.
UniProt Q99616: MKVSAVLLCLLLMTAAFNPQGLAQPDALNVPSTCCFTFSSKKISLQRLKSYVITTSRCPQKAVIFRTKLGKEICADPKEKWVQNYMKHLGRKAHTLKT
UniProt P78423: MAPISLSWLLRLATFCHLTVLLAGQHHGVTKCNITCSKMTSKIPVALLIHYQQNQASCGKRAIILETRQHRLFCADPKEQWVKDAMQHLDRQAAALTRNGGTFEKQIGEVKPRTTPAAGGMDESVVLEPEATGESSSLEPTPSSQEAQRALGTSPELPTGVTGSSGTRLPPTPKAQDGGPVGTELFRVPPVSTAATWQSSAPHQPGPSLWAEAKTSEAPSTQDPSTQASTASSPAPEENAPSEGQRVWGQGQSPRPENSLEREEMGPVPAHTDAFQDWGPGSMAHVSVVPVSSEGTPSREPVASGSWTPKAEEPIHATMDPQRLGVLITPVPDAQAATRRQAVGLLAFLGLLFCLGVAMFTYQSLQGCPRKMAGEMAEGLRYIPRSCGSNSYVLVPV

For assay [1], the target named is T1, P1243 (evasin from Amblyomma americanum), purified, C-terminal StrepII:8xHis tag (Amblyomma americanum).
T1 sequence: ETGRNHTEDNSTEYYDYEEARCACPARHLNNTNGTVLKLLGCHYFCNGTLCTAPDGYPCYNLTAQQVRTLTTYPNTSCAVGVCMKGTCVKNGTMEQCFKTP
The assay can be described thus: BLI; titration; evasin immobilised on the sensor through the C-terminal His tag; chemokine 300 nM to 0.4 nM (CXCL2: 600 nM to […]), at least five concentrations; non-interacting reference protein; one-site binding fit or steady state analysis; both purified. On the technique in general: Biolayer interferometry detects binding as a change in optical thickness at a sensor tip.

In assay [2] the target is T2, P1156 (evasin from Ixodes ricinus), purified, C-terminal StrepII:His tag (Ixodes ricinus) (UniProt V5HBW0).
T2 sequence: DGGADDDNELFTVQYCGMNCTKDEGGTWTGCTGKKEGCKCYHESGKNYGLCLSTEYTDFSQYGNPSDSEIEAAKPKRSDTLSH
The assay is described as follows: BLI; cross-binding screen; His-tagged evasin immobilised on Ni-NTA biosensors (OctetRed); 300 nM chemokine; 30 °C; 10 mM Na2HPO4, 1.8 mM KH2PO4, 2.7 mM KCl, 500 mM NaCl, 0.1% BSA, 0.002% TWEEN-20, pH 7.4; single experiment; both purified.

These are yes or no findings as the source states them, for the method shown. For some assays here: A result given as binding can be weak or reduced; the word gives no strength. Sequences can lack the tags named with a protein.

Turning to CCL13 (from UniProt Q99616) (ligand), the binding entry in assay [1] is “binds”. Consider CX3CL1 (from UniProt P78423) (ligand), for which, in assay [2], the binding result is recorded as “no binding (tested: 300 nM)”.
